Laboratory results reported in publication PMC3910079.
No constants are given. Whether binding was seen depends on the method and setting. Binding seen in cells or lysates may run through a third protein. Some binding calls cover weakened binding; strength is not graded here. Values belong to the molecule of their own block, whether it stands above or below them.

The chains behind the UniProt entries cited, without tags or fusion partners.
UniProt P38903: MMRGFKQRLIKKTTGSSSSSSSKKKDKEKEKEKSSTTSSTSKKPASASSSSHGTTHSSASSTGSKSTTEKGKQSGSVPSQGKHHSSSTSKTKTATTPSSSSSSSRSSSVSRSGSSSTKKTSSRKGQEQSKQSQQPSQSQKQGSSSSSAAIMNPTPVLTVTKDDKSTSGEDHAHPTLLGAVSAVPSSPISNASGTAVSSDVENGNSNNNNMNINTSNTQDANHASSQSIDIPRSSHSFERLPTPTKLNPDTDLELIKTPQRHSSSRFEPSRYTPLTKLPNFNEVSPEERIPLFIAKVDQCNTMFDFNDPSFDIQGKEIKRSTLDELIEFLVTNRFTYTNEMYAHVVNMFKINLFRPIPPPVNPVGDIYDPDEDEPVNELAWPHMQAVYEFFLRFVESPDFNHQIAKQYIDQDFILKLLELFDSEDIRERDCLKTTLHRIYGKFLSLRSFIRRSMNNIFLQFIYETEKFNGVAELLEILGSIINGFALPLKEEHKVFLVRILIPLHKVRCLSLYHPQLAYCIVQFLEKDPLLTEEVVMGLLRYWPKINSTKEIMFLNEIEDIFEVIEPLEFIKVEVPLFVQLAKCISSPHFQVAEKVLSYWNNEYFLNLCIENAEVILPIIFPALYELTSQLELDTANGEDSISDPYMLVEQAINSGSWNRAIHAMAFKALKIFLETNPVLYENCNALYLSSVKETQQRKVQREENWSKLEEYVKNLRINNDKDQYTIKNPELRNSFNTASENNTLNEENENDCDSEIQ

How the values were obtained:
[1] = molecular target: T1, Sgo1-SZZ(TAP) (S. cerevisiae) (UniProt Q08490); test: co-IP; cells arrested in nocodazole for 2 hr and treated with the cross-linker DSP before extract preparation; extracts incubated with IgG-coupled dynabeads for 1.5 hr at 4°C to precipitate SZZ(TAP)-tagged Sgo1; immunoblot
T1 sequence: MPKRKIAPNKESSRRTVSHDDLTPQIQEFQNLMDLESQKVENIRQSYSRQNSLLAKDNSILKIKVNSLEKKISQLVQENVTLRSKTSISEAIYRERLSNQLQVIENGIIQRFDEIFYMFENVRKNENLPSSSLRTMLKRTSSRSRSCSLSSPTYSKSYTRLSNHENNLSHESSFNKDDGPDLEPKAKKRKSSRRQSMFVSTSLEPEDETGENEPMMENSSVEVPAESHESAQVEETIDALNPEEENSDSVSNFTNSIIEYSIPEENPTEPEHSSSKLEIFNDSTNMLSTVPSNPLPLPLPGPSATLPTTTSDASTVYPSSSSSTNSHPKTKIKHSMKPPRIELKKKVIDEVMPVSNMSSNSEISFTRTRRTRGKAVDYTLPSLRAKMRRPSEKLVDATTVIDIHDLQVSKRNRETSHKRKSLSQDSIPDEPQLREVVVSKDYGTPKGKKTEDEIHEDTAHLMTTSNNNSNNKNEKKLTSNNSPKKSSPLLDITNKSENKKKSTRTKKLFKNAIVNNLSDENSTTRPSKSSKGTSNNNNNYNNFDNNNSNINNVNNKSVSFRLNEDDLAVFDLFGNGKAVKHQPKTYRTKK

[2] = molecular target: T1, Sgo1-SZZ(TAP) (S. cerevisiae); test: as above; remark: listed apart in the source
[3] = molecular target: T1, Sgo1-SZZ(TAP) (S. cerevisiae); test: co-IP; nocodazole-arrested cells directly drop-frozen without DSP or treated with DSP; extracts with or without 25 U benzonase for 30 min; IgG-coupled beads; immunoblot

Molecule: Rts1-9Myc (from UniProt P38903 1-757)
binding [1]: binds

B3: Ipl1-6HA (enzyme, UniProt P38991 1-367)
chain: MQRNSLVNIKLNANSPSKKTTTRPNTSRINKPWRISHSPQQRNPNSKIPSPVREKLNRLPVNNKKFLDMESSKIPSPIRKATSSKMIHENKKLPKFKSLSLDDFELGKKLGKGKFGKVYCVRHRSTGYICALKVMEKEEIIKYNLQKQFRREVEIQTSLNHPNLTKSYGYFHDEKRVYLLMEYLVNGEMYKLLRLHGPFNDILASDYIYQIANALDYMHKKNIIHRDIKPENILIGFNNVIKLTDFGWSIINPPENRRKTVCGTIDYLSPEMVESREYDHTIDAWALGVLAFELLTGAPPFEEEMKDTTYKRIAALDIKMPSNISQDAQDLILKLLKYDPKDRMRLGDVKMHPWILRNKPFWENKRL
binding [2]: binds

Next, values leading:

binding [2]: binds
B1: Brn1-6HA (protein, UniProt P38170 1-754)
chain: MTTQLRYENNDDDERVEYNLFTNRSTMMANFEEWIKMATDNKINSRNSWNFALIDYFYDLDVLKDGENNINFQKASATLDGCIKIYSSRVDSVTTETGKLLSGLAQRKTNGASNGDDSNGGNGEGLGGDSDEANIEIDPLTGMPISNDPDVNNTRRRVYNRVLETTLVEFETIKMKELDQELIIDPLFKKALVDFDEGGAKSLLLNTLNIDNTARVIFDASIKDTQNVGQGKLQRKEEELIERDSLVDDENEPSQSLISTRNDSTVNDSVISAPSMEDEILSLGMDFIKFDQIAVCEISGSIEQLRNVVEDINQAKDFIENVNNRFDNFLTEEELQAAVPDNAEDDSDGFDMGMQQELCYPDENHDNTSHDEQDDDNVNSTTGSIFEKDLMAYFDENLNRNWRGREHWKVRNFKKANLVNKESDLLEETRTTIGDTTDKNTTDDKSMDTKKKHKQKKVLEIDFFKTDDSFEDKVFASKGRTKIDMPIKNRKNDTHYLLPDDFHFSTDRITRLFIKPGQKMSLFSHRKHTRGDVSSGLFEKSTVSANHSNNDIPTIADEHFWADNYERKEQEEKEKEQSKEVGDVVGGALDNPFEDDMDGVDFNQAFEGTDDNEEASVKLDLQDDEDHKFPIRENKVTYSRVSKKVDVRRLKKNVWRSINNLIQEHDSRKNREQSSNDSETHTEDESTKELKFSDIIQGISKMYSDDTLKDISTSFCFICLLHLANEHGLQITHTENYNDLIVNYEDLATTQAAS

binding [2]: binds | binding [3]: binds
B2: Ycs4-6HA (protein, UniProt Q06156 1-1176)
chain: MSGFSLSEYLTKFQTTDRESYPRLQDPSRELNVIIDQLAVSPEQIDASPDSLEALIDLCHDFPHLTPKLQTQLSYLISSSLSNLSKDIKANLSSNVNFTEIGGLIPQWKRHLEEYGYLIQVLLTFLQDELHKVSSQSTNLNRSAKNSKNDSANVELFKRDCNQMENLLESITKLLEINLSKIFQTTPEKDLFIGLFTRPLFVLLEIEPVTKVSSLKMFIQRILAMCVKNHGQSSSIQSSLMTNLTYFLHLSVFNAELLKLLNDEYNYPQLTEDILKEISTRVFNAKDTTGPKAISNFLIKLSELSPGIMLRQMNLVITLLNNSSITLRCSVVEACGNIVAELAQDPQTMEHYKQQIAVLIELLEERFQDSNPYVRTKAIQGCSKICDLSSKFNKSKAKFTSLAVRSLQDRSSLVRRNSVKLLSKLLLKHPFKAIHGSQLRLSEWEEYLKGSESQLNSTLKKVESQETLNDTIERSLIEEEVEQDEGQCRTELEGSFNKSAELSRIENEVENINATNTSVLMKLKLMIVYYKDAISFIKEIHKSIELISNLLFSKNRNEVLESMDFLVLADAFDIELSEFGIKKMLHLVWMKGTNDEGTSISVHLIECYKQLFLTAPDSCNMQEKAAHIAKNLINLSIGASIADLASLEQLLGMMYEQKLIDQHVINILWAIYNSASKASMQKEQNVNNRDSEKGFSKEQIHGSIIILGMLSLADNEIALKGLESLLNIGLGAVGLKDLTLCRYSCLALERMVPKRSTIITKAINQELEDVAVKKLYAIIINYTKDNEYYPMCEQALSALFTISSKPDILATDLIREKTMMTFGKPEEEDSILSLEQSSRVVSLSQLLFIVGQVAIKTLVYLEKCEAEFKKRKIEAETRNGKVKNQGADVTNTTQDNGGDKELEMIGGTNEDDFTDAIQFVKENELLFGEKSILGKFCPIVEEIVSNSSRFSDPMLQRTATLCLEKLMCLSSKYCEKSLPLLITVMEKSPDPTIRSNAVLGLGDMAVCFNNLVDENTDYLYRRLHDENLMVQRTCLMTVTFLILAGQVKVKGQLGEMAKCLDNPDQGISDMCRLFFTELASKDNAIYNGFIDIFSNLSSDDLLGKESFKKIIKFLLTFIDKERHQKQLNEKLVGRLRKCETQKQWDDIAFVLNNLPYKNEDVTALLEQGFKVVSAKE
